From publication PMC5872055
Construct, isoform or probe ends are uncertain for at least one entry. The comparison behind a weaker result is the experiment's own reference, which may not be listed here.

Legend:
[1] = molecular target: bovine serum albumin (bovine) (UniProt P02769); test: electrochemical impedance spectroscopy; details: non-zero response, markedly smaller than lysozyme, attributed to non-specific adsorption; EIS: proteins in 50 mM phosphate buffer (PBS) pH 7.4, 15 min incubation, rinse with PBS and DI water, then ferro-/ferricyanide read-out; SWV: 10 mM PBS; commercial protein; single-stranded DNA
thrombin = test: electrochemical impedance spectroscopy; details: non-zero response, markedly smaller than lysozyme, attributed to non-specific adsorption; EIS: proteins in 50 mM phosphate buffer (PBS) pH 7.4, 15 min incubation, rinse with PBS and DI water, then ferro-/ferricyanide read-out; SWV: 10 mM PBS; commercial protein; single-stranded DNA

ATCAGGGCTAAAGAGTGCAGAGTTACTTAG [anti-lysozyme aptamer (30-mer)]
binding result [1]: binds more weakly
binding result (thrombin): binds more weakly
